# Percent effect of library compounds

Protein sequences, listed by entry. Tags and fused reporters are not part of them. Residues count along the entry.
UniProt A4I591, 1-473: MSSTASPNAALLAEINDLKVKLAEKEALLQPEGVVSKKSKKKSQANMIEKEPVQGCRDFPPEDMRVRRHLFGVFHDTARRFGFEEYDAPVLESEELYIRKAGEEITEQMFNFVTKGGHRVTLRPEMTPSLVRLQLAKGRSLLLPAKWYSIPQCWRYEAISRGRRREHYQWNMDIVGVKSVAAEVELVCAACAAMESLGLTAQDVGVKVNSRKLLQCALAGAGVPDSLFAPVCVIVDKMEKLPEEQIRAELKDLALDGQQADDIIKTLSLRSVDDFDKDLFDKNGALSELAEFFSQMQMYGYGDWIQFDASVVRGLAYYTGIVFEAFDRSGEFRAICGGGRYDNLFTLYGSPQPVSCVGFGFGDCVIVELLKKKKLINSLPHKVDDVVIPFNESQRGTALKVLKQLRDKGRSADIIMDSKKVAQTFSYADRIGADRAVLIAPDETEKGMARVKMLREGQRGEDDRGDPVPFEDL
UniProt P9WFT3, whole entry: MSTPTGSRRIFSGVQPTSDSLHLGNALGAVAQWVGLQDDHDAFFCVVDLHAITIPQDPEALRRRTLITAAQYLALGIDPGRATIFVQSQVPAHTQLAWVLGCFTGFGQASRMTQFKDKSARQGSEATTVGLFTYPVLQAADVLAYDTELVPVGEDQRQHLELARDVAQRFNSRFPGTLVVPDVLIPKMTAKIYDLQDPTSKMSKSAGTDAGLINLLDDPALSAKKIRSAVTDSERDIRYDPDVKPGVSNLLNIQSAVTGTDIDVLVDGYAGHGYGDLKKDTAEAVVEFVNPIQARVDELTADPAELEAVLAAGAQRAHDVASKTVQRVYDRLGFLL
UniProt P9WNZ1, whole entry: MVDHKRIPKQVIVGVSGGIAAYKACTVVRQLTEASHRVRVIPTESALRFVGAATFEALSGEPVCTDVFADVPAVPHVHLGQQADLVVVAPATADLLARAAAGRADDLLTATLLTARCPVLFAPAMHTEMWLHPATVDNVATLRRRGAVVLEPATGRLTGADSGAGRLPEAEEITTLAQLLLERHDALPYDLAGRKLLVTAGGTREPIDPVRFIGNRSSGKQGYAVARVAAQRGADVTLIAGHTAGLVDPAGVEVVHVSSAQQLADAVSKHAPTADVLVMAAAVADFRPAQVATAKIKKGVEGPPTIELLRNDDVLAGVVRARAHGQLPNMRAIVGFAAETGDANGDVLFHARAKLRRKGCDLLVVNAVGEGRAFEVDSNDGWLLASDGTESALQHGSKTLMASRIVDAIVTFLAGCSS

From ChEMBL document CHEMBL3988442, “University of Dundee, Small-Polar-MMV Screening Library” (2021).

LiHisRS: 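Enzyme assay of histidyl-tRNA synthetase; the read-out is not stated. Target: Histidine-tRNA ligase, Leishmania infantum (UniProt A4I591). Concentration: 30 µM. The record gives no direction; compounds that gave an IC50 in retests scored well above the rest, so higher reads as stronger inhibition. The assay is labelled LdHisRS but filed under L. infantum. Size under these conditions: about 69,000 compounds, about 410 of them at 50% or above in at least one test.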
MtTrpRS: 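Enzyme assay of tryptophanyl-tRNA synthetase; the read-out is not stated. Target: Tryptophan-tRNA ligase, Mycobacterium tuberculosis (UniProt P9WFT3). Concentration: 10 µM. Higher most likely means stronger inhibition; the record gives no direction and few retests gave an IC50. Of about 65,000 compounds tested this way, about 64 (0.098%) reached 50% or more in at least one test.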
CoaBC: 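Enzyme assay of CoaBC with a phosphate dye (Biomol Green) read at 650 nm. Target: Coenzyme A biosynthesis protein CoaBC, Mycobacterium tuberculosis (UniProt P9WNZ1). Tested at 30 µM. Higher reads as stronger inhibition, judged from the few compounds that gave an IC50. Most strong results did not repeat in a second test. Of about 67,000 compounds tested this way, about 40 (0.06%) reached 50% or more in at least one test.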

The filed quantity is “Percent Effect” (%).
How 0% and 100% were set is not recorded. Most values in the screen are low, and negative values occur.
The compounds are a random part of those screened.
A dash means the value is not listed here; it may have been measured.

SMILES,LiHisRS,MtTrpRS,CoaBC
CC1=Nc2c(c(=O)[nH]n2C(C)C)C(c2ccc3nccnc3c2)S1 (stereo not shown),23.68,0.07003,-2.273
Cc1ccccc1CCNC(=O)CN1CCCC(Cn2cncn2)C1 (stereo not shown),27.59,-6.734,1.828
CCc1cnc(N2C[C@@H]3[C@@H](C(=O)NC(C)C)CCS(=O)(=O)[C@@H]3C2)nc1,17.54,-6.563,-2.397
CC(C)Oc1ncccc1CNC(=O)NC(C)c1cccs1 (stereo not shown),15.66,1.224,5.646
Cc1cc(-c2ccccc2C(=O)O)nc(C2CCCN(C)C2)n1 (stereo not shown),22.68,-,1.937
Cc1ccc(CN2CCc3c(CN(C)C)n[nH]c3C2)s1,15.79,-1.082,-9.98
Cc1nnc(NC(=O)CN2CCc3c(nc(C(C)C)n3C)C2)s1,10.2,5.815,-0.2296
Cc1ccc(CN(C)C(=O)CCNS(=O)(=O)c2cccnc2)cc1,6.25,3.838,2.893
CCn1cc(CN2C[C@@H]3CCCN3C[C@H]2CCSC)cn1,12,-,6.32
CCc1ncc2c(n1)CN(Cc1nc(-c3ccoc3)no1)CC2,34.21,-2.416,3.259
CCN(Cc1nonc1C)C(=O)c1cc(C(F)(F)F)nn1C,15.52,2.073,-3.695
CC(C)c1ccc(-n2cc(O)c(C(=O)O)n2)cc1,7.692,-34.08,4.8
Cc1[nH]c(=O)[nH]c(=O)c1CC(=O)N1CCCN(CC2CC2)C(C(C)C)C1 (stereo not shown),6.667,2.949,-2.187
COCc1ccccc1C(=O)NCCCN1CCCC1C(=O)N(C)C (stereo not shown),15.38,0.3564,-5.757
CC(CN1CCOC1=O)NC(=O)c1cccc(Cl)c1Cl (stereo not shown),3.333,0.07128,3.617
CNC(=O)[C@H]1C[C@@H]2CN(C(=O)c3ccco3)C[C@@H]2N1S(C)(=O)=O,16.98,1.154,3.934
CN(C(=O)CNc1ccc(C#N)cc1)C1CCCCC1,14.04,-1.816,-12.5
CCOCCC(=O)N1CCCN(Cc2csc(CC)n2)CC1,18.92,-6.725,8.616
O=C(c1ccc2nccnc2c1)N1C[C@@H](CN2CCCC2)[C@@H](CO)C1,8.333,-3.476,3.085
Cc1noc(CNc2ccc(OC(F)F)cc2OC(F)F)n1,20.69,-0.374,1.071
CC(=O)N(C)Cc1cccc(NC(=O)CCCc2nc(C(C)C)no2)c1,16.81,-4.008,-7.71
COc1cc(CNCCc2cnn(C)c2)cc2c1OCCO2,24.8,0,-6.649
CC(=O)N1CCN(C(=O)NCc2ccc(Cl)s2)CC1,16.52,22.24,3.435
Cc1ccc(CNCc2nnc3n2CCCC3C(F)(F)F)s1 (stereo not shown),18.45,7.282,-29.02
COc1ccc(C(CC(=O)NCc2n[nH]c(N)n2)c2ccccc2)cc1 (stereo not shown),17.5,2.477,-
CCCn1nnnc1CSc1nccn1C,10.42,-1.37,7.452
Cc1nc(CN(C)C(=O)Nc2cccc(COC(C)C)c2)no1,4.712,-3.372,0.4348
O=C(CCC1CCCN(C(=O)CCc2ccc(F)c(F)c2)C1)NC1CC1 (stereo not shown),-44.25,2.041,4.151
O=C(O)C1(Oc2ccc3ccccc3c2)CCN(c2ccncc2)CC1,10.4,3.696,0.3619
CCn1ncc2c1C(COCC1CC1)CN(c1ccncn1)C2 (stereo not shown),16.36,4.882,-2.521
O=C(Nc1ccc2c(c1)OCCO2)N1CCCC1c1ccco1 (stereo not shown),20.65,3.577,-3.995
CCn1ncc2c1CCCC2NCc1ccc(OC)c(F)c1 (stereo not shown),1.695,-4.241,1.05
CCc1n[nH]c(C2CN(C(=O)c3cscn3)CCO2)n1 (stereo not shown),0.885,10.41,0
Cc1cc(SC(C)(C)C)ccc1NC(C)C(=O)NC(N)=O (stereo not shown),8.547,10.78,14.1
Cc1cc(=O)n2c3c(cc(S(=O)(=O)NC4CC4)cc13)CCC2,-3.448,-1.425,7.39
COc1ccc(NC(=O)C2CCOC2)c(N2CCN(C(C)=O)CC2)n1 (stereo not shown),28.85,-0.5629,-3.934
CCN1CCC2(CN(C(=O)N(C)C)CC23CCNCC3)C1=O (stereo not shown),21.36,9.135,2.036
COC1CCN(C(=O)Cc2csc(-c3ccc(F)cc3)n2)CC1,12.5,-5.21,4.943
c1coc(CN2CCCC3(COCCN(Cc4c[nH]nn4)C3)C2)c1 (stereo not shown),13.21,-4.722,0.3807
Cc1c(Br)cccc1NC(=O)N(C)CCO,10.85,0.9031,1.597
CCC(=O)N1CC[C@H](O)[C@@H]1Cc1ccccc1,22.94,-3.814,-3.529
CN1C[C@@H](n2cnc(-c3ccccc3)c2-c2c[nH]cn2)C[C@H]1C(=O)O,4.712,-0.289,-2.609
Cc1nc(CN(C)C2CCN(CC(=O)NC3CCOCC3)C2)no1 (stereo not shown),21.54,-0.6803,7.083
CCn1ncc2c1C(COCC1CC1)CN(c1ccc(C)nn1)C2 (stereo not shown),13.21,-,2.927
Cc1cc(C)n(CC2CCCCN2C(=O)c2ccc3[nH]nnc3c2)n1 (stereo not shown),13.25,1.903,1.139
CC(=O)c1ccc(N2CCN(C(=O)NCc3cc[nH]n3)CC2)cc1,-20.54,-0.5136,6.003
COCCCC1(CO)CCCN(CCOC)C1 (stereo not shown),4.839,-1.077,-4.485
Cn1cc(CC(CNC(=O)Nc2cccc(Cl)c2)C(N)=O)cn1 (stereo not shown),9.402,-8.233,-6.303
Cc1nn(C)c2ncc(C(=O)N3CCNC(=O)C3)cc12,7.143,0.7897,9.827
O=C(Nc1nc2c(s1)CCC2)NC1CCCC1,36.96,0.8223,2.663
Cc1ccccc1C1CCCN1Cc1ccc(S(=O)(=O)N(C)C)o1 (stereo not shown),11.61,-10.79,-16.48
Cc1cc(-c2cnc(N3CCC(O)CC3)nc2-c2cccnc2C)on1,-8,-,-6.815
Cc1cc(C(=O)N2CCCC3(CN(C)C(=O)O3)C2)c2ccc(F)cc2n1 (stereo not shown),-9.091,5.853,-1.411
CCn1cc(C(=O)NCC(OC)c2cccc(Cl)c2)cn1 (stereo not shown),16.24,-6.346,-24.37
Cn1c(CN2CCCC(Cn3cncn3)C2)nc2ccccc21 (stereo not shown),11.01,0.9676,5.355

For reference, 6 entries once more:

With CCn1ncc2c1C(COCC1CC1)CN(c1ccc(C)nn1)C2 (stereo not shown) the screen gave LiHisRS: 13.21%; CoaBC: 2.927%.
With CC(CN1CCOC1=O)NC(=O)c1cccc(Cl)c1Cl (stereo not shown) the screen gave LiHisRS: 3.333%; MtTrpRS: 0.07128%; CoaBC: 3.617%.
With Cc1cc(=O)n2c3c(cc(S(=O)(=O)NC4CC4)cc13)CCC2 the screen gave LiHisRS: -3.448%; MtTrpRS: -1.425%; CoaBC: 7.39%.
With COc1ccc(NC(=O)C2CCOC2)c(N2CCN(C(C)=O)CC2)n1 (stereo not shown) the screen gave LiHisRS: 28.85%; MtTrpRS: -0.5629%; CoaBC: -3.934%.
With CC(=O)c1ccc(N2CCN(C(=O)NCc3cc[nH]n3)CC2)cc1 the screen gave LiHisRS: -20.54%; MtTrpRS: -0.5136%; CoaBC: 6.003%.
With CN1C[C@@H](n2cnc(-c3ccccc3)c2-c2c[nH]cn2)C[C@H]1C(=O)O the screen gave LiHisRS: 4.712%; MtTrpRS: -0.289%; CoaBC: -2.609%.